No constants are given. Whether binding was seen depends on the method and setting. Binding seen in cells or lysates may run through a third protein. Some binding calls cover weakened binding; strength is not graded here.

Protein sequences, listed by entry. Tags and fused reporters are not part of them.
UniProt Q6R327: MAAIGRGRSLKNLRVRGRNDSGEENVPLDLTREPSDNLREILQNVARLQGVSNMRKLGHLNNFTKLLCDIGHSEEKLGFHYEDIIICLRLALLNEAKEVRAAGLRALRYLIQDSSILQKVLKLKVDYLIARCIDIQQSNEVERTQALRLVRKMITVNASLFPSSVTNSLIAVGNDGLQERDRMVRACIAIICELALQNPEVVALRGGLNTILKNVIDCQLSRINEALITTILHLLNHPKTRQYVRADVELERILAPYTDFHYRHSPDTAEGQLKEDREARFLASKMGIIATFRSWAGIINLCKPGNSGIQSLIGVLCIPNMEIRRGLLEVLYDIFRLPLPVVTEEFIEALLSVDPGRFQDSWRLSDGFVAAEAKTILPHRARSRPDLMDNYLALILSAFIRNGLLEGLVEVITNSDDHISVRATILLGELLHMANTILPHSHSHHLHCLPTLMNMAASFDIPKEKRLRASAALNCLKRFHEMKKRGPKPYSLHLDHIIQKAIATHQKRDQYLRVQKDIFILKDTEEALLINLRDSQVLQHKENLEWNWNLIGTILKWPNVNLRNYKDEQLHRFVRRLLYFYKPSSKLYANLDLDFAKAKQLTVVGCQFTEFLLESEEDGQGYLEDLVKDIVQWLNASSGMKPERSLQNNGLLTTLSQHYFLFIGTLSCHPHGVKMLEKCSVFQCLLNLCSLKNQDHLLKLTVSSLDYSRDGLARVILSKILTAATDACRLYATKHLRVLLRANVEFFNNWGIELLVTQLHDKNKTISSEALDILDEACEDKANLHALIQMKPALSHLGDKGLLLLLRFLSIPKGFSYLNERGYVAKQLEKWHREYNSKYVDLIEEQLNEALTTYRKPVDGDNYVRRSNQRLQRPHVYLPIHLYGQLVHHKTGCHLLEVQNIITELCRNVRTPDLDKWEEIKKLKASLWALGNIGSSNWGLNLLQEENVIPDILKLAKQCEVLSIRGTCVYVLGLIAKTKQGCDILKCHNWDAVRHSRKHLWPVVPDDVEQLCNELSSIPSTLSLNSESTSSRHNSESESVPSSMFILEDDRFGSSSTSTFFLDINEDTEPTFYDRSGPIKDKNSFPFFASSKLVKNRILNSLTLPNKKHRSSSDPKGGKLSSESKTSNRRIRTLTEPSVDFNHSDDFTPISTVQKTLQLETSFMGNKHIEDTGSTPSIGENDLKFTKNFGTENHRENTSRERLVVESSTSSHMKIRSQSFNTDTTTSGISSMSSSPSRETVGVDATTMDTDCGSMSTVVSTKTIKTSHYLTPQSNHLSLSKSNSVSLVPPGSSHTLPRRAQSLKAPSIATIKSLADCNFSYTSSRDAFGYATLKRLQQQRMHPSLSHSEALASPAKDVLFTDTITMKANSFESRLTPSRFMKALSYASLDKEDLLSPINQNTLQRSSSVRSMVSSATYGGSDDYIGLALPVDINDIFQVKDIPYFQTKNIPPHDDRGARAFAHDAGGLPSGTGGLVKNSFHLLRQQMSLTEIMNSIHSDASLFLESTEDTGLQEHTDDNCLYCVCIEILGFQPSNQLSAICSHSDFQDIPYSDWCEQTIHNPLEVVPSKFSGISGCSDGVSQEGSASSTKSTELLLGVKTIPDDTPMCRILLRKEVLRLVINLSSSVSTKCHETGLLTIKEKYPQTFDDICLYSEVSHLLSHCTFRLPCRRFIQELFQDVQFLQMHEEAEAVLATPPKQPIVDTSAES
UniProt Q13418: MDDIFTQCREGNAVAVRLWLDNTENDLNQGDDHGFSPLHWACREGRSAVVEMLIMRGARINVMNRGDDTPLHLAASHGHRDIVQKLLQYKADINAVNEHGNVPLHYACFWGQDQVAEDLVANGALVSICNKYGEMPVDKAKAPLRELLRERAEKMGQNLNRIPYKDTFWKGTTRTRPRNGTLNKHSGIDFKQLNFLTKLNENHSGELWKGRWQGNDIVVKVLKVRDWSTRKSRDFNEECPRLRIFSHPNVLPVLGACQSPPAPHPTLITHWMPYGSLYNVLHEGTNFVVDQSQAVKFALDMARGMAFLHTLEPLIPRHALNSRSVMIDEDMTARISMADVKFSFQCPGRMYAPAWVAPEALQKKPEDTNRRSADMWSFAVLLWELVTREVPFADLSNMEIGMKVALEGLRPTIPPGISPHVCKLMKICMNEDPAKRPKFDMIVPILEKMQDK

The target of assay [1] is rictor (human (endogenous in Jeko-1 and HBL-2)) (UniProt Q6R327). The assay is described as follows: co-IP; endogenous proteins from lysates of Jeko-1-IR and HBL-2-IR cells (and their parental Sen cells), without treatment; IR cells also after ibrutinib treatment; detected by western blot.
Assay [2] has the same target. As to the kind of experiment: condition: only parental (Sen) cells after ibrutinib treatment; co-IP; endogenous proteins from lysates of parental (Sen) Jeko-1 and HBL-2 cells after ibrutinib treatment; detected by western blot. On the technique in general: A western blot detects proteins with antibodies after separation by electrophoresis.

Turning to “integrin-linked kinase (from UniProt Q13418 1-452)”, the binding entry in assay [1] is on record as “binds”; in assay [2], “no binding”.

These data come from article PMC5399304.
